Measured values taken from PubChem BioAssay AID493014 (National Center for Advancing Translational Sciences (NCATS), 2011).
Hit rate of the full screen: of about 340,000 compounds, about 170 (0.05%) were called active. The inconclusive results got no clear call from the source; some entries with a clear call stand among them for comparison. The call rests on the fitted dose curve; in most records, active means well fitted inhibition curve with a large enough effect in the signal ratio, with a control signal flat (not every such curve was filed as active); inconclusive means small, poorly fitted or top-dose-only effect, or effect the other way, or a change in a side signal; inactive means flat fitted curve, though single readings scatter; the % refers to the signal ratio. Potencies beside an inconclusive call are fits to weak or partial responses and may not hold up.

Assay: qHTS Assay to Find Inhibitors of Chronic Active B-Cell Receptor Signaling
Settings: ABC-DLBCL IkBa-CBG/CBR reporter, luminescence ratio (green luciferase fused to IkBa over red control in TMD8 lymphoma cells), 4 h; activity change, negative = inhibition: at 46.1 µM (top of the series) unless noted
Excerpt: NIH Molecular Libraries Probe Production Network [MLPCN] NIH Chemical Genomics Center [NCGC] MLPCN Grant: 1 R03 DA031086-01A1 PI Name: Dr. R. Eric Davis NCGC Assay Overview: Diffuse large B-cell lymphoma (DLBCL) is the most common category of non-Hodgkin lymphoma, with ~20,000 new cases per year in the United States. DLBCL should be regarded as a collection of different neoplasms. Microarray gene expression analysis has defined two principal types of DLBCL, named for their similarity to normal B cell stages or activation states: a germinal center B-cell (GCB) type, and an activated B-cell (ABC) type. In ABC-DLBCL, a constitutive high-level activity of the NF-kappaB family of transcription factors has been observed (1) and NF-kappaB target genes are more highly expressed in ABC primary tumors than in GCB tumors. Functional studies have shown a constitutive high-level activity of the IkappaB (inhibitor of kappa-B) kinase (IKK) complex. […] Further analysis of DLBCL primary tumors for NF-kappaB target gene expression imply that although CARD11 is required for constitutive IKK activity in all ABC-DLBCL lines, mutations in CARD11 may be the root cause of IKK activation only in lines or tumors with such mutations. In other words, CARD11 mutations may explain NF-kappaB activation in only 10% of ABC-DLBCL cases. […] This process has been termed 'chronic active BCR signaling' (CABS). The goal of this screen is to find small-molecule inhibitors of the CABS pathway found in ABC-DLBCL lines using a cell-based assay that measures IkappaBalpa stability, which has already been extensively validated in the OCI-Ly3 line (PubChem AID:445; REF: 4). […] The assay uses green (CBG68) and red (CBR) emitting beetle luciferases [Chroma-GloTM developed by Promega Corp.] where the green luciferase is fused to IkappaBalpha and the red luciferase is present in its native state. Both luciferase genes are stably present in the TMD8 human ABC DLBCL cell line, but their expression is under the control of tetracycline-inducible promoters. Following the addition of doxycycline to induce expression of the luciferases, the green luminescence in control cultures rises only slowly because the CBG fusion partner IkappaBalpha is targeted by IKK activity for rapid degradation. In contrast, green luminescence rises rapidly in the presence of proteasome inhibitors or IKK inhibitors. The rise in red luminescence of CBR is not affected by proteasome or IKK inhibitors, and serves as normalization for cell number and nonspecific effects. Compounds were screened as a concentration-titration series that ranged from 46 uM to 3 nM.
NCGC Assay Protocol Summary: Cells were seeded in 1536-well plates at 5000 cells/4uL in IMDM medium containing 0.5% FBS, w/o phenol red, 1% penicillin/streptomycin. Then, 23 nL of compounds or DMSO were delivered to each well using a pin tool. One uL 20ng/ml doxycycline was then dispensed into white solid 1536-well plates and the plates were incubated at 37C/5% C02 in a cell incubator for 4 hrs. Then 4 uL luminescent substrate mix (in-house prepared: 150 mM Tris-Cl, pH 7.6, 3 mM MgCl2, 1% Triton X-100, 5 mM DTT, 0.2 mM CoA, 0.15 mM ATP, 5 mM D-luciferin, final concentrations) was added to each well. The plate was incubated at r.t. for 10-15 min. The plates were measured on a ViewLux plate reader for green luminescence (540/20 nm filter) and red luminescence (618/8 nm filter). The green and red luminescent signals were corrected for red and green luminescence filter overlap using previously determined filter calibration constants (determined using the procedure outlined in the Promega Technical Manual; REF 4). The %Activity was determined from the ratio of corrected green/red luminescent values. MG132 were used as control. […] Red luminescent %Activity was normalized to the difference between red luminesence in basal cells (0%Activity) and zero luminescence (-100% Activity). […]
Potency means the concentration at half of the fitted maximal effect.

SMILES | activity change, negative = inhibition | Potency
CC(=O)N1CCN(CC(=O)Nc2ccc(C)c(F)c2)CC1 | inconclusive: -0.0277% | –
CC1=[N+](CC(=O)c2ccccc2)CCn2cccc21 | inconclusive: 23.6% | –
COc1ccc(-c2nnc(SCC(=O)NNC(=O)c3ccc(C)cc3)o2)cc1 | inactive | –
Cc1ccc(S(=O)(=O)N2CCCCC2)cc1C(=O)OC(C)C(=O)NC1CCCCC1C (stereo not drawn) | inconclusive: 2.52% | –
Fc1cccc2sc(Nc3nc4c(F)cccc4s3)nc12 | inactive | –
COc1c(Cl)cc(Cl)cc1C(=O)Nc1ccc(C(=O)O)cc1 | – | inconclusive: 20.6 µM [falling, partial curve, poor fit]
Clc1ccc(-c2nc(Cc3ccccc3Cl)no2)cc1 | inconclusive: 10.1% | –
O=C(NN1CCCCC1)c1cccc(COc2ccc(Cl)cc2)c1 | – | inconclusive: 23.1 µM [falling, single point]
COc1ccccc1NC(=S)NC(=O)/C=C/c1cccs1 | – | inconclusive: 1.78 µM [falling, partial curve, poor fit]
O=C(Nc1ccc(-c2csnn2)cc1)C1CC1 | inconclusive: 7.14% | –
CCc1cccc(C)c1NC(=O)c1cc(S(=O)(=O)N(Cc2ccc(C(=O)OC)cc2)Cc2ccc(OC)c(OC)c2)ccc1F | inconclusive: 4.29% | –
O=C(NC1=NCCS1)c1ccc(C(F)(F)F)cc1 | inconclusive: 0.858% | –
Cc1ccc(NC(=S)N(CCN(C)C)C(C)c2cccnc2)c(C)c1 (stereo not drawn) | inconclusive: -13.3% | –
COc1cccc(OCc2cc(C(=O)NCc3cnc4ccccn34)no2)c1 | inconclusive: -16.1% | –
CCCNS(=O)(=O)c1ccc(NC(=O)Cc2cccs2)cc1 | inactive | –
Cc1ccccc1-c1noc(CCC(=O)NCCc2ccccc2)n1 | inconclusive: 0.238% | –
Cc1nc(N)sc1-c1csc(Nc2cccc(O)c2)n1 | – | inconclusive: 7.08 µM [falling, partial curve, poor fit]
C/C(=N\Nc1ccc([N+](=O)[O-])cc1)c1ccc(-n2nncc2C(C)(C)C)cc1 | inconclusive: -20% | –
Cc1ccc([C@@H]2CC=C(C(=O)O)[C@H](c3ccccc3)N2S(=O)(=O)c2ccccc2C)cc1 | inconclusive: 14% | –
Nc1c(S(=O)(=O)O)cc(NC(=O)c2ccccc2)c2c1C(=O)c1ccccc1C2=O | inactive | –
O=C(Nc1ccc2c(c1)OCCO2)N1CCOCC1 | inconclusive: -29.8% | –
O=C(O)c1ccc(CSc2nc3ccc(NC(=O)c4ccccc4C(=O)O)cc3s2)cc1 | inconclusive: -16.5% | –
CC(=O)c1cccc(NC(=O)C(C)OC(=O)CNC(=O)c2ccc(C)s2)c1 (stereo not drawn) | inconclusive: 3.54% | –

Quoted at random: two entries already listed
SMILES | activity change, negative = inhibition | Potency
Fc1cccc2sc(Nc3nc4c(F)cccc4s3)nc12 | inactive | –
O=C(NC1=NCCS1)c1ccc(C(F)(F)F)cc1 | inconclusive: 0.858% | –
